Patent publication US20050048539A1, “Methods to monitor molecule conformation and molecule/molecule proximity” (The General Hospital Corporation, priority 2003, published 2005)

Experiment: Autofluorescence and direct effect of NSAIDs on FITC lifetime
Details: 375 μM S-ibuprofen; 150 μM indomethacin; 400 μM naproxen; 1 mM aspirin

Row | Compound | FITC lifetime in the presence of NSAID
1 | CC(C)Cc1ccc([C@H](C)C(=O)O)cc1 [S-ibuprofen, (S)-ibuprofen] | 2372±23 psec
2 | COc1ccc2c(c1)c(CC(=O)O)c(C)n2C(=O)c1ccc(Cl)cc1 [indomethacin] | 2367±9 psec
3 | CC(=O)Oc1ccccc1C(=O)O [aspirin] | 2360±26 psec
4 | COc1ccc2cc([C@H](C)C(=O)O)ccc2c1 [naproxen] | 2381±38 psec
